Results from PMC10620153, “ARF1 prevents aberrant type I interferon induction by regulating STING activation and recycling” (Nature Communications, 2023).

The chains behind the UniProt entries cited, without tags or fusion partners.
UniProt P84077: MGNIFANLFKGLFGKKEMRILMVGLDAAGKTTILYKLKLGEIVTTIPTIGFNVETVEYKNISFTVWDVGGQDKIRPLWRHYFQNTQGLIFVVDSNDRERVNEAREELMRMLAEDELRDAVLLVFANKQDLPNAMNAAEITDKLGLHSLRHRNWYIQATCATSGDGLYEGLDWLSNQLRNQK

B1: COPB2 (natural protein, human (endogenous in HEK293T), UniProt P35606 1-906, looked up)
chain: MPLRLDIKRKLTARSDRVKSVDLHPTEPWMLASLYNGSVCVWNHETQTLVKTFEVCDLPVRAAKFVARKNWVVTGADDMQIRVFNYNTLERVHMFEAHSDYIRCIAVHPTQPFILTSSDDMLIKLWDWDKKWSCSQVFEGHTHYVMQIVINPKDNNQFASASLDRTIKVWQLGSSSPNFTLEGHEKGVNCIDYYSGGDKPYLISGADDRLVKIWDYQNKTCVQTLEGHAQNVSCASFHPELPIIITGSEDGTVRIWHSSTYRLESTLNYGMERVWCVASLRGSNNVALGYDEGSIIVKLGREEPAMSMDANGKIIWAKHSEVQQANLKAMGDAEIKDGERLPLAVKDMGSCEIYPQTIQHNPNGRFVVVCGDGEYIIYTAMALRNKSFGSAQEFAWAHDSSEYAIRESNSIVKIFKNFKEKKSFKPDFGAESIYGGFLLGVRSVNGLAFYDWDNTELIRRIEIQPKHIFWSDSGELVCIATEESFFILKYLSEKVLAAQETHEGVTEDGIEDAFEVLGEIQEIVKTGLWVGDCFIYTSSVNRLNYYVGGEIVTIAHLDRTMYLLGYIPKDNRLYLGDKELNIISYSLLVSVLEYQTAVMRRDFSMADKVLPTIPKEQRTRVAHFLEKQGFKQQALTVSTDPEHRFELALQLGELKIAYQLAVEAESEQKWKQLAELAISKCQFGLAQECLHHAQDYGGLLLLATASGNANMVNKLAEGAERDGKNNVAFMSYFLQGKVDACLELLIRTGRLPEAAFLARTYLPSQVSRVVKLWRENLSKVNQKAAESLADPTEYENLFPGLKEAFVVEEWVKETHADLWPAKQYPLVTPNEERNVMEEGKDFQPSRSTAQQELDGKPASPTPVIVASHTANKEEKSLLELEVDLDNLELEDIDTTDINLDEDILDD
notes: Coatomer subunit beta' (COPB2), component of the COPI complex, endogenous in HEK293T cells; also called beta'-COP; source: endogenous, HEK293T lysate
B2: COPB1 (natural protein, human (endogenous in HEK293T), UniProt P53618 1-953, looked up)
chain: MTAAENVCYTLINVPMDSEPPSEISLKNDLEKGDVKSKTEALKKVIIMILNGEKLPGLLMTIIRFVLPLQDHTIKKLLLVFWEIVPKTTPDGRLLHEMILVCDAYRKDLQHPNEFIRGSTLRFLCKLKEAELLEPLMPAIRACLEHRHSYVRRNAVLAIYTIYRNFEHLIPDAPELIHDFLVNEKDASCKRNAFMMLIHADQDRALDYLSTCIDQVQTFGDILQLVIVELIYKVCHANPSERARFIRCIYNLLQSSSPAVKYEAAGTLVTLSSAPTAIKAAAQCYIDLIIKESDNNVKLIVLDRLIELKEHPAHERVLQDLVMDILRVLSTPDLEVRKKTLQLALDLVSSRNVEELVIVLKKEVIKTNNVSEHEDTDKYRQLLVRTLHSCSVRFPDMAANVIPVLMEFLSDNNEAAAADVLEFVREAIQRFDNLRMLIVEKMLEVFHAIKSVKIYRGALWILGEYCSTKEDIQSVMTEIRRSLGEIPIVESEIKKEAGELKPEEEITVGPVQKLVTEMGTYATQSALSSSRPTKKEEDRPPLRGFLLDGDFFVAASLATTLTKIALRYVALVQEKKKQNSFVAEAMLLMATILHLGKSSLPKKPITDDDVDRISLCLKVLSECSPLMNDIFNKECRQSLSHMLSAKLEEEKLSQKKESEKRNVTVQPDDPISFMQLTAKNEMNCKEDQFQLSLLAAMGNTQRKEAADPLASKLNKVTQLTGFSDPVYAEAYVHVNQYDIVLDVLVVNQTSDTLQNCTLELATLGDLKLVEKPSPLTLAPHDFANIKANVKVASTENGIIFGNIVYDVSGAASDRNCVVLSDIHIDIMDYIQPATCTDAEFRQMWAEFEWENKVTVNTNMVDLNDYLQHILKSTNMKCLTPEKALSGYCGFMAANLYARSIFGEDALANVSIEKPIHQGPDAAVTGHIRIRAKSQGMALSLGDKINLSQKKTSI
notes: Coatomer subunit beta (COPB1), component of the COPI complex, endogenous in HEK293T cells; detected in the co-IP with anti-COPB (Abcam Ab2899); The co-IP names the protein only as COPB; also called beta-COP; source: endogenous, HEK293T lysate
B3: COPG1 (natural protein, human (endogenous in HEK293T), UniProt Q9Y678 1-874, looked up)
chain: MLKKFDKKDEESGGGSNPFQHLEKSAVLQEARVFNETPINPRKCAHILTKILYLINQGEHLGTTEATEAFFAMTKLFQSNDPTLRRMCYLTIKEMSCIAEDVIIVTSSLTKDMTGKEDNYRGPAVRALCQITDSTMLQAIERYMKQAIVDKVPSVSSSALVSSLHLLKCSFDVVKRWVNEAQEAASSDNIMVQYHALGLLYHVRKNDRLAVNKMISKVTRHGLKSPFAYCMMIRVASKQLEEEDGSRDSPLFDFIESCLRNKHEMVVYEAASAIVNLPGCSAKELAPAVSVLQLFCSSPKAALRYAAVRTLNKVAMKHPSAVTACNLDLENLVTDSNRSIATLAITTLLKTGSESSIDRLMKQISSFMSEISDEFKVVVVQAISALCQKYPRKHAVLMNFLFTMLREEGGFEYKRAIVDCIISIIEENSESKETGLSHLCEFIEDCEFTVLATRILHLLGQEGPKTTNPSKYIRFIYNRVVLEHEEVRAGAVSALAKFGAQNEEMLPSILVLLKRCVMDDDNEVRDRATFYLNVLEQKQKALNAGYILNGLTVSIPGLERALQQYTLEPSEKPFDLKSVPLATAPMAEQRTESTPITAVKQPEKVAATRQEIFQEQLAAVPEFRGLGPLFKSSPEPVALTESETEYVIRCTKHTFTNHMVFQFDCTNTLNDQTLENVTVQMEPTEAYEVLCYVPARSLPYNQPGTCYTLVALPKEDPTAVACTFSCMMKFTVKDCDPTTGETDDEGYEDEYVLEDLEVTVADHIQKVMKLNFEAAWDEVGDEFEKEETFTLSTIKTLEEAVGNIVKFLGMHPCERSDKVPDNKNTHTLLLAGVFRGGHDILVRSRLLLLDTVTMQVTARSLEELPVDIILASVG
notes: Coatomer subunit gamma-1 (COPG1), component of the COPI complex, endogenous in HEK293T cells; also called gamma-COP; source: endogenous, HEK293T lysate
B4: COPA (natural protein, human (endogenous in HEK293T), UniProt P53621 1-1224, looked up)
chain: MLTKFETKSARVKGLSFHPKRPWILTSLHNGVIQLWDYRMCTLIDKFDEHDGPVRGIDFHKQQPLFVSGGDDYKIKVWNYKLRRCLFTLLGHLDYIRTTFFHHEYPWILSASDDQTIRVWNWQSRTCVCVLTGHNHYVMCAQFHPTEDLVVSASLDQTVRVWDISGLRKKNLSPGAVESDVRGITGVDLFGTTDAVVKHVLEGHDRGVNWAAFHPTMPLIVSGADDRQVKIWRMNESKAWEVDTCRGHYNNVSCAVFHPRQELILSNSEDKSIRVWDMSKRTGVQTFRRDHDRFWVLAAHPNLNLFAAGHDGGMIVFKLERERPAYAVHGNMLHYVKDRFLRQLDFNSSKDVAVMQLRSGSKFPVFNMSYNPAENAVLLCTRASNLENSTYDLYTIPKDADSQNPDAPEGKRSSGLTAVWVARNRFAVLDRMHSLLIKNLKNEITKKVQVPNCDEIFYAGTGNLLLRDADSITLFDVQQKRTLASVKISKVKYVIWSADMSHVALLAKHAIVICNRKLDALCNIHENIRVKSGAWDESGVFIYTTSNHIKYAVTTGDHGIIRTLDLPIYVTRVKGNNVYCLDRECRPRVLTIDPTEFKFKLALINRKYDEVLHMVRNAKLVGQSIIAYLQKKGYPEVALHFVKDEKTRFSLALECGNIEIALEAAKALDDKNCWEKLGEVALLQGNHQIVEMCYQRTKNFDKLSFLYLITGNLEKLRKMMKIAEIRKDMSGHYQNALYLGDVSERVRILKNCGQKSLAYLTAATHGLDEEAESLKETFDPEKETIPDIDPNAKLLQPPAPIMPLDTNWPLLTVSKGFFEGTIASKGKGGALAADIDIDTVGTEGWGEDAELQLDEDGFVEATEGLGDDALGKGQEEGGGWDVEEDLELPPELDISPGAAGGAEDGFFVPPTKGTSPTQIWCNNSQLPVDHILAGSFETAMRLLHDQVGVIQFGPYKQLFLQTYARGRTTYQALPCLPSMYGYPNRNWKDAGLKNGVPAVGLKLNDLIQRLQLCYQLTTVGKFEEAVEKFRSILLSVPLLVVDNKQEIAEAQQLITICREYIVGLSVETERKKLPKETLEQQKRICEMAAYFTHSNLQPVHMILVLRTALNLFFKLKNFKTAATFARRLLELGPKPEVAQQTRKILSACEKNPTDAYQLNYDMHNPFDICAASYRPIYRGKPVEKCPLSGACYSPEFKGQICRVTTVTEIGKDVIGLRISPLQFR
notes: Coatomer subunit alpha (COPA), component of the COPI complex, endogenous in HEK293T cells; also called alpha-COP; coatomer protein subunit alpha; source: endogenous, HEK293T lysate

What follows are binders tested against human ARF1 wild type, myc-FLAG tagged (pCMV6-hARF1-myc-FLAG) (human) (UniProt P84077) (assay: affinity purification with mass spectrometry; SILAC: ARF1 WT in heavy-labelled, ARF1 R99C in light-labelled HEK293T cells; lysates in 150 mM NaCl, 50 mM HEPES pH 7.4, 1% Triton X-100, 5 mM EDTA; anti-FLAG M2 magnetic beads 4 h at 4 °C, five washes; samples combined 1-to-1; mean of two replicates).

binding, binds:
B1, B2, B3, B4

Results are given in words; binding and its absence hold for the method and conditions named. Binding seen in cells or lysates may run through a third protein. Here binding means that the protein was enriched with, or labelled near, the bait; the list need not be complete.
